According to patent US20160376343A1:
Results are given in words; binding and its absence hold for the method and conditions named. Some entries that bind do so weakly or less than the wild type.

Chains of the proteins cited; added tags and fusions are not shown. Residues count along the entry.
UniProt Q16552, residues 24-155: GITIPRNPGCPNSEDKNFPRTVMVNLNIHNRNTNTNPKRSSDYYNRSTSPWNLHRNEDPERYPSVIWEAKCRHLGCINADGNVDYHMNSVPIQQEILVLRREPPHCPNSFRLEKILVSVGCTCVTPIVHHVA

Legend:
hIL-17A (human) [1] = biological target: hIL-17A (human) (UniProt Q16552); assay: ELISA on captured hIL-17A, variants expressed in mammalian cells
hIL-17A (human) [2] = biological target: hIL-17A (human) (UniProt Q16552); assay: ELISA on plate-immobilised hIL-17A of clones expressed in mammalian cells under identical conditions, OD 450 nm; concentration not given

| Binder | binding (hIL-17A (human) [1]) | binding (hIL-17A (human) [2]) |
| --- | --- | --- |
| V23 (Fc fusion, not shown: a dimerising Fc or GST) LRLLDHRALVCSQPGLNCTVKNSTCLDDSWIHPRNLTPSSPKDLQIQLHFAHTQQGDLVPVAHIEWTLQTDASTLYLEGAELSVLQLNTNERLCVRFEFLSKLRHHHKRWRFTFSHFVVDPGQEYEVTVHHLPKPIPDGDPNHQSKNFLVPDCEHPRMKVTTPCMSSGSLWDPNITVETLEAHQLRVSFTLWNESTHYQILLTSFPHTENHSCFEHMHHIPAPRPEEFHQRSNVTLTLRNLKGCCRHQVQIQPFFSSCLNDCLRHSATVSCPEMPDTPEPIPDYMPLW | binds | binds |
| V26 (Fc fusion, not shown: a dimerising Fc or GST) LRLLDHRALVCSQPGLSCTVKNSTCLDDSWIHPRNLTPSSPKDLQIQLHFAHTQQGDLVPVAHIEWTLQTDASIPYLEGAELSVLQLNTNERLCVRFEFLSKLRHHHKRWRFTFSHFVVDPGQEYEVTVHHLPKPIPDGDPNHQSKNFLVPDCEHPRMKVTTPCMSSGSLWDPNITVETLEAHQLRVSFTLWNESTHYQILLTSFPHMENHSCFEHMHHIPAPRPEEFHQRSNVTLTLRNLKGCCRHQVQIQPFFSSCLNDCLRHSATVSCPEMPDTPEPIPDYMPLW | binds | binds |
| V27 (Fc fusion, not shown: a dimerising Fc or GST) LRLLDHRALVCSQPGLNCTIKNSTCLDDSWIHPRNLTPSSPKDLQIQLHFAHTQQGDLVPVAHIEWTLQTDASILYLEGAELSVLQLNTNERLCVRFEFLSKLRHHHKRWRFTFSHFVVDPGQEYEVTVHHLPKPIPDGDPNHQSKNFLVPDCEHPRMKVTTPCMSSGSLWDPNITVETLEAHQLRVSFTLWNESTHYQILLTSFPHMENHSCFEHMHHIPAPRPEEFHQRSNVTLTLRNLKGCCRHQVQIQPFFSSCLNDCLRHSATVSCPEMPDTPEPIPDYMPLW | binds | binds |
| V25 (Fc fusion, not shown: a dimerising Fc or GST) LRLLDHRALVCSQPGLNCTVKNSTCLDDSWIHPRNLTPSSPKDLQIQLHFAYTQQGDLVPVAHIEWTLQTDASILYLEGAELSVLQLNTNERLCVRFEFLSKLRHHHKRWRFTFSHFVVDPGQEYEVTVHHLPKPIPDGDPNHQSKNFLVPDCEHPRMKVTTPCMSSGSLWDPNITVETLEAHQLRVSFTLWNESTHYQILLTSFPHMENHSCFEHMHHIPAPRPEEFHQRSNVTLTLRNLKRCCRHQVQIQPFFSSCLNDCLRHSATVSCPEMPDTPEPIPDYMPLW | binds | binds |
| V24 (Fc fusion, not shown: a dimerising Fc or GST) LRLLDHRALVCSQPGLNCTVKNSTCLDDSWIHPRNLTPSSPKDLQIQLHFAHTQQGDLVPVAHIEWTLQTDASILYLKGAELSVLQLNTNERLCVRFEFLSKLRHHHKRWRFTFSHFVVDPGQEYEVTVHHLPKPIPDGDPNHQSKNFLVPDCEHPRMKVTTPCMSSGSLWDPNITVETLEAHQLRVSFTLWNESTHYQVLLTSFPHMENHSCFEHMHHIPAPRPEEFHQRSNVTLTLRNLKGCCRHQVQIQPFFSSCLNDCLRHSATVSCPEMPDTPEPIPDYMPLW | binds | – |

Now from value to binder:

| binding (hIL-17A (human) [1]) | binding (hIL-17A (human) [2]) | Binder |
| --- | --- | --- |
| binds | binds | V34 (Fc fusion, not shown: a dimerising Fc or GST) LRLLDHRALVCSQPGLNCTVKNSTCLDDSWIYPRNLTPSSPKDLQIQLHFAHTQQGDLVPVAHIEWTLQTDASILYLEGAELSVLQLNTNERLCVRFEFLSKLRHHHKRWRFTFSHFVVDPGQEYEVTVHHLPKPIPDGDPNHQSKNFLVPDCEHPRMKVTTPCMSSGSLWDPNITVETLEAHQLRVSFTLWNESTHYQVLLTSFPHMENHSCFEHMHHIPAPRPEEFHQRSNVTLTLRNLKGCCRHQVQIQPFFSSCLNDCLRHSATVSCPEMPDTPEPIPDYMPLW |
| binds | binds | V31 (Fc fusion, not shown: a dimerising Fc or GST) LRLLDHRALVCSQPGLNCTVKNSTCLDDSWIHPRNLTPSSPKDLQIQLHFAYTQQGDLVPVAHIEWTLQTDASILYLEGAELSVLQLNTNERLCVRFEFLSKLRHHHKRWRFTFSHFVVDPGQEYEVTVHHLPKPIPDGDPNHQSKNFLVPDCEHPRMKVTTPCMSSGSLWDPNITVETLEAHQLRVSFTLWNESTHYQILLTSFPHMENHSCFEHMHHIPAPRPEEFHQRSNVTLTLRNLKGCCRHQVQIQPFFSSCLNDCLRHSATVSCPEMPDTPEPIPDYMPLW |
| binds | binds | V35 (Fc fusion, not shown: a dimerising Fc or GST) LRLLDHRALVCSQPGLNCTVKNSTCLDDSWIHPRNLTPSSPKDLQIQLHFAHTQQGDLVPVAHIEWTLQTDASILYLKGAELSVLQLNTNERLCVRFEFLSKLRHHHKRWRLTFSHFVVDPGQEYEVTVHHLPKPIPDGDPNHQSKNFLVPDCEHPRMKVTTPCMSSGSLWDPNITVETLEAHQLRVSFTLWNESTHYQILLTSFPHMENHSCFEHMHHIPAPRPEEFHQRSNVTLTLRNLKGCCRHQVQIQPFFSSCLNDCLRHSATVSCPEMPDTPEPIPDYMPLW |
| binds | binds | V30 (Fc fusion, not shown: a dimerising Fc or GST) LRLLDHRALVCSQPGLNCTVKNSTCLDDSWIHPRNLTPSSPKDLQIQLHFAHTQQGDLVPVAHIEWTLQTDASILYLEGAELSVLQLNTNERLCVRFEFLSKLRHHHKRWRFTFSHFVVDPGQEYEVTVYHLPKPIPDGDPNHQSKNFLVPDCEHPRMKVTTPCMSSGSLWDPNITVETLEAHQLRVSFTLWNESTHYQILLTSFPHRENHSCFEHMHHIPAPRPEEFHQRSNVTLTLRNLKGCCRHQVQIQPFFSSCLNDCLRHSATVSCPEMPDTPEPIPDYMPLW |
| binds | binds | V33 (Fc fusion, not shown: a dimerising Fc or GST) LRLLDHRALVCSQPGLSCTVKNSTCLDDSWIHPRNLTPSSPKDLQIQLHFAHTQQGDLVPVAHIEWTLQTDASILYLEGAELSVLQLATNERLCVRFEFLSKLRHHHKRWRFTFSHFVVDPGQEYEVTVHHLPKPIPDGDPNHQSKNFLVPDCEHPRMKVTTPCMSSGSLWDPNITVETLEAHQLRVSFTLWNESTHYQILLTSFPHMENHSCFEHMHHIPAPRPEEFHQRSNVTLTLRNLKGCCRHQVQIQPFFSSCLNDCLRHSATVSCPEMPDTPEPIPDYMPLW |
| binds | binds | V32 (Fc fusion, not shown: a dimerising Fc or GST) LRLLDHRALVCSQPGLNCTVKNSTCLDDSWIHPRNLTPSSPKDLQIQLHFAHTQQGDLVPVAHIEWTLQTDASILYLKGAELSVLQLNTNERLCVRFEFLSKLRHHHKRWRFTFSHFVVDPGQEYEVTVHHLPKPIPDGDPNHQSKNFLVPDCEHPRMKVTTPCMSSGSLWDPNITVETLEAHQLRVSFTLWNESTHYQILLTSFPHMENHSCFEHMHHIPAPRPEEFHQRSNVTLTLRNLKGCCRHQVQIQPFFSSCLNDCLRHSATVSCPEMPDTPEPIPDYMPLW |
